The values below come from PMC4851370, “The N-Terminus of the Floral Arabidopsis TGA Transcription Factor PERIANTHIA Mediates Redox-Sensitive DNA-Binding”.

Positions count from the first letter of the chain named. For at least one entry, the source does not settle the construct or the ends of the probe. For part of these data: A weaker result is weaker than the reference pair of the same experiment. For part of these data: At least one verdict was read from the data and is not stated in words by the source. Where a protein sequence is shown, tags need not be part of it.

Test in all cases: EMSA
A general note: In EMSA bound probe runs differently from free probe, usually more slowly.

Data set [1] addresses T1, PANC27SC68SC87SC114SC154SC340S (PAN6xCysmut) (Arabidopsis thaliana) (UniProt Q9SX27).
T1 sequence (looked up): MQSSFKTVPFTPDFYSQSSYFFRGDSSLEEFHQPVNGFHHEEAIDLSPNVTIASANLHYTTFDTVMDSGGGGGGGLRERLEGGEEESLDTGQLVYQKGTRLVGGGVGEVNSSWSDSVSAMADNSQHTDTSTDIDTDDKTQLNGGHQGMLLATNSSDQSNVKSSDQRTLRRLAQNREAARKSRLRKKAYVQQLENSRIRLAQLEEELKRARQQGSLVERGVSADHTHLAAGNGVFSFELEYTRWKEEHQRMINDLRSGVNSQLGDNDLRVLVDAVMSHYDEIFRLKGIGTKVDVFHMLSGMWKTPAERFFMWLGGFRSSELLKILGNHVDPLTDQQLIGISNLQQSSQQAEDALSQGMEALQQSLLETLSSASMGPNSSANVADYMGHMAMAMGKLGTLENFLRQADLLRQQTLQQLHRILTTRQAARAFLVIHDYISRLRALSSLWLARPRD
The settings on record: 0.9 mM DTT; with or without 0.9 or 20 mM DTT or 2 mM diamide, 30 min in the dark before probe addition; protein translated in vitro; residues 1-452; label: 5' 32P.

For data set [2], the target named is T2, PANΔN del1-166 (Arabidopsis thaliana) (UniProt Q9SX27).
T2 sequence (looked up): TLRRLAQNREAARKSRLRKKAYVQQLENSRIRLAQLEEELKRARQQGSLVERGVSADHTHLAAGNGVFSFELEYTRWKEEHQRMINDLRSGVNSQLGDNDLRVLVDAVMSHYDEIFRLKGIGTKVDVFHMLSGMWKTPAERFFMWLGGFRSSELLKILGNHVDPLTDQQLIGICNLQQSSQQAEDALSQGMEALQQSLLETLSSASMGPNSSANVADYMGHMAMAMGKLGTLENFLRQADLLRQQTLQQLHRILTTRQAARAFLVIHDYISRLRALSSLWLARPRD
The settings on record: 0.9 mM DTT; with or without 0.9 or 20 mM DTT or 2 mM diamide, 30 min in the dark before probe addition; protein translated in vitro; residues 167-452; label: 5' 32P.

Data set [3] addresses T3, PANC27SC68SC87SC114S (Arabidopsis thaliana) (UniProt Q9SX27).
T3 sequence (looked up): T1 sequence (looked up) with S154C, S340C
As to conditions: with or without 0.9 or 20 mM DTT or 2 mM diamide, 30 min in the dark before probe addition, protein translated in vitro, residues 1-452, label: 5' 32P.

In data set [4] the target is T4, PANC27SC114SC154SC340S (Arabidopsis thaliana) (UniProt Q9SX27).
T4 sequence (looked up): T1 sequence (looked up) with S68C, S87C
As to conditions: with or without 0.9 or 20 mM DTT or 2 mM diamide, 30 min in the dark before probe addition, protein translated in vitro, residues 1-452, label: 5' 32P.

For data set [5], the target named is T5, PANC68SC87S (Arabidopsis thaliana) (UniProt Q9SX27).
T5 sequence (looked up): T1 sequence (looked up) with S27C, S114C, S154C, S340C
The settings on record: 2 mM diamide; with or without 0.9 or 20 mM DTT or 2 mM diamide, 30 min in the dark before probe addition; protein translated in vitro; residues 1-452; label: 5' 32P.

Data set [6] addresses T6, PANC27SC68S (Arabidopsis thaliana) (UniProt Q9SX27).
T6 sequence (looked up): T1 sequence (looked up) with S87C, S114C, S154C, S340C
As to conditions: with or without 0.9 or 20 mM DTT or 2 mM diamide, 30 min in the dark before probe addition, protein translated in vitro, residues 1-452, label: 5' 32P.

Take “AAGAATCTTTGATCACGTCATCACTCAGATATT (double strand)”: the binding result in data set [1] is recorded as “binds”; in data set [2], “binds”; in data set [3] (0.9 mM DTT), “binds”; in data set [3] (2 mM diamide) it was “binds more weakly”; in data set [4] (0.9 mM DTT) it was “binds”; in data set [4] (2 mM diamide, weak decrease), “binds more weakly”. In addition, the binding result is given as “binds more weakly” in data set [5], “binds” in data set [6] (0.9 mM DTT) and “binds more weakly” in data set [6] (2 mM diamide).
